{
  "source": "the supplement of paper PMC8166895",
  "note": "Structures can show the parent of a compound that is named as a salt. The list shows a part of the results. Most entries show no effect beyond the scatter of the controls.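 A single-replicate pilot screen of approved drugs and clinical or known-target compounds measured melting temperature via differential scanning fluorimetry. Top stabilizing hits raised the melting point by 2 °C or more; negative shifts indicate destabilization.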",
  "data": [
    {"system": "SARS-CoV-2 main protease (Mpro, nsp5)", "assay": "thermal shift ΔTm of Mpro relative to plate average Tm; higher = stronger thermal stabilization of Mpro (binding)", "conditions": "10 µM; protein concentration 1 µM", "units": {"thermal shift ΔTm of Mpro": "°C"}, "values": [
      {"smiles": "O=C(O[C@H]1CN2CCC1CC2)N1CCc2ccccc2[C@@H]1c1ccccc1", "note": "[Solifenacin succinate]", "thermal shift ΔTm of Mpro": -0.173},
      {"smiles": "NC(=O)N/N=C/c1ccc([N+](=O)[O-])o1", "note": "[Nitrofural]", "thermal shift ΔTm of Mpro": 0.0688},
      {"smiles": "CC1=CC(=O)NS(=O)(=O)O1", "note": "[Acesulfame Potassium]", "thermal shift ΔTm of Mpro": -0.11},
      {"smiles": "CCCC(=O)Nc1ncnc2c1ncn2[C@@H]1O[C@@H]2COP(=O)(O)O[C@H]2[C@H]1OC(=O)CCC", "note": "[Dibutyryl-cAMP (Bucladesine)]", "thermal shift ΔTm of Mpro": -0.147},
      {"smiles": "CN(C)CCC[C@@]1(c2ccc(F)cc2)OCc2cc(C#N)ccc21", "note": "[Escitalopram Oxalate]", "thermal shift ΔTm of Mpro": 0.105},
      {"smiles": "O=C(CNC(=O)c1ccc(Cl)cc1)NO", "note": "[Benurestat]", "thermal shift ΔTm of Mpro": 0.179},
      {"smiles": "CN1CCCC(n2nc(Cc3ccc(Cl)cc3)c3ccccc3c2=O)CC1", "note": "(stereo unspecified) [Azelastine HCl]", "thermal shift ΔTm of Mpro": -0.0897},
      {"smiles": "CCN1CCN(C(=O)N[C@@H](C(=O)N[C@@H]2C(=O)N3[C@@H]2SC(C)(C)[C@@H]3C(=O)O)c2ccccc2)C(=O)C1=O", "note": "[Piperacillin Sodium]", "thermal shift ΔTm of Mpro": -0.113},
      {"smiles": "CN(NC(=O)CC(=O)NN(C)C(=S)c1ccccc1)C(=S)c1ccccc1", "note": "[Elesclomol (STA-4783)]", "thermal shift ΔTm of Mpro": 0.0338},
      {"smiles": "O=C(O)c1cccc(N=Nc2c(O)[nH]c3ccc(S(=O)(=O)NCc4ccc(F)cc4)cc23)c1", "thermal shift ΔTm of Mpro": -0.0221},
      {"smiles": "C[C@]12N[C@H](Cc3ccccc31)c1ccccc12", "note": "[MK-801 (Dizocilpine)]", "thermal shift ΔTm of Mpro": 0.0162},
      {"smiles": "O=Nc1c(-c2c(O)[nH]c3cc(Br)ccc23)[nH]c2ccccc12", "thermal shift ΔTm of Mpro": 0.581},
      {"smiles": "CCCCc1nc2ccc(NC(=O)NC3CCCCC3)cc2n1Cc1ccc(-c2ccccc2C(=O)O)cc1", "thermal shift ΔTm of Mpro": -0.0318},
      {"smiles": "CO[C@@H]1[C@@H](OC(N)=O)[C@@H](O)[C@H](Oc2ccc3c(O)c(NC(=O)c4ccc(O)c(CC=C(C)C)c4)c(=O)oc3c2C)OC1(C)C", "note": "[Novobiocin Sodium]", "thermal shift ΔTm of Mpro": 0.0418},
      {"smiles": "CC1(C)OC(=O)NC1=O", "note": "[5,5-Dimethyloxazolidine-2,4-dione]", "thermal shift ΔTm of Mpro": 0.176},
      {"smiles": "C[C@H](Nc1ncnc2[nH]cnc12)c1nc2ccc(F)cc2c(=O)n1-c1ccccc1", "note": "[Acalisib]", "thermal shift ΔTm of Mpro": 0.0676},
      {"smiles": "CNc1nc(Nc2cnn(C3CCN(C4COC4)CC3F)c2Cl)ncc1C(F)(F)F", "note": "(stereo unspecified)", "thermal shift ΔTm of Mpro": -0.224},
      {"smiles": "CCCCNNC(=O)c1ccc(Br)cc1", "thermal shift ΔTm of Mpro": 0.0262},
      {"smiles": "CCC[C@H](N[C@@H](C)C(=O)N1[C@H](C(=O)O)C[C@@H]2CCCC[C@@H]21)C(=O)OCC", "note": "[Perindopril erbumine]", "thermal shift ΔTm of Mpro": 0.0716},
      {"smiles": "Fc1ccc(-c2nc3n(c2-c2ccncc2)CCS3)cc1", "thermal shift ΔTm of Mpro": 0.143},
      {"smiles": "CCCC(=O)O[C@]1(C(=O)COC(C)=O)CC[C@H]2[C@@H]3C[C@H](F)C4=CC(=O)C=C[C@]4(C)[C@@]3(F)[C@@H](O)C[C@@]21C", "note": "[Difluprednate]", "thermal shift ΔTm of Mpro": -0.141}
    ]}
  ]
}
